In paper PMC4691890:
No constants are given. Whether binding was seen depends on the method and setting. Some results given as binding are weak or reduced against the parent protein; the word gives no strength.

Biological target: T1, full-length human Apaf-1 (residues 1–1248) (human), O14727
T1 chain: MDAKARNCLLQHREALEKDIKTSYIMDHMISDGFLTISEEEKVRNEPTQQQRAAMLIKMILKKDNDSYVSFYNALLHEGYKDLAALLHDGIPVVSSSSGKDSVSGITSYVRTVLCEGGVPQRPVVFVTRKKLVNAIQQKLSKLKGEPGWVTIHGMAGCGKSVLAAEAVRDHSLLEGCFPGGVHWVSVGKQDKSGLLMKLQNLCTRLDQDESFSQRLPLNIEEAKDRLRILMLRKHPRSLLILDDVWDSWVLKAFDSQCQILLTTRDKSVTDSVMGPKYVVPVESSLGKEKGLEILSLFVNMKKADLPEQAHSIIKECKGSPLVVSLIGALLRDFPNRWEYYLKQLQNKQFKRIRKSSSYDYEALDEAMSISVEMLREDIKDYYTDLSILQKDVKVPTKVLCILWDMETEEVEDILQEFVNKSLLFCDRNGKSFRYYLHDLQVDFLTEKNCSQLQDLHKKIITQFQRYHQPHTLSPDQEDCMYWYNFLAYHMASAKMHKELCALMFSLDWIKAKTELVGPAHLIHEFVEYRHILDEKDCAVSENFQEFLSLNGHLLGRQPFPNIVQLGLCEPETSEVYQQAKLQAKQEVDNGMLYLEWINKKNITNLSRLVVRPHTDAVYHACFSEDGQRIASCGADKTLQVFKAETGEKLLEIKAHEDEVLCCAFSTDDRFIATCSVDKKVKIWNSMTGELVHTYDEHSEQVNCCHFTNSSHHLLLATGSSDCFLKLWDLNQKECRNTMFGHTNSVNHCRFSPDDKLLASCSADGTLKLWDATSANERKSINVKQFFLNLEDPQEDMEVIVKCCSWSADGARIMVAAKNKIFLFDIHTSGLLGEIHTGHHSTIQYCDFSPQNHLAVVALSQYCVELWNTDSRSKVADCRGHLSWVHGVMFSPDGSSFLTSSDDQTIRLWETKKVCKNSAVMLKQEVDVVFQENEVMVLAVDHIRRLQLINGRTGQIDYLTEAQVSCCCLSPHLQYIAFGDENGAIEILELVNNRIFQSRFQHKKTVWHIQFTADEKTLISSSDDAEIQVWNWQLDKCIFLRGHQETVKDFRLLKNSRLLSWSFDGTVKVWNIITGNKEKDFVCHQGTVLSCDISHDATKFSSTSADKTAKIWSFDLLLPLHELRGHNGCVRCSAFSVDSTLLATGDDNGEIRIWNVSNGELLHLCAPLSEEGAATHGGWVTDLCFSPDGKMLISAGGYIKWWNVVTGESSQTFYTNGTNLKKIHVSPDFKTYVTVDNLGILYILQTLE
Assay: SEC; gel filtration of apoptosome formation: Apaf-1 with CytC in the presence of 1 mM dATP; both purified
Details: remark: other sources report otherwise

B1: full-length human Apaf-1 (residues 1–1248), O14727 1-1248 (natural protein)
chain: MDAKARNCLLQHREALEKDIKTSYIMDHMISDGFLTISEEEKVRNEPTQQQRAAMLIKMILKKDNDSYVSFYNALLHEGYKDLAALLHDGIPVVSSSSGKDSVSGITSYVRTVLCEGGVPQRPVVFVTRKKLVNAIQQKLSKLKGEPGWVTIHGMAGCGKSVLAAEAVRDHSLLEGCFPGGVHWVSVGKQDKSGLLMKLQNLCTRLDQDESFSQRLPLNIEEAKDRLRILMLRKHPRSLLILDDVWDSWVLKAFDSQCQILLTTRDKSVTDSVMGPKYVVPVESSLGKEKGLEILSLFVNMKKADLPEQAHSIIKECKGSPLVVSLIGALLRDFPNRWEYYLKQLQNKQFKRIRKSSSYDYEALDEAMSISVEMLREDIKDYYTDLSILQKDVKVPTKVLCILWDMETEEVEDILQEFVNKSLLFCDRNGKSFRYYLHDLQVDFLTEKNCSQLQDLHKKIITQFQRYHQPHTLSPDQEDCMYWYNFLAYHMASAKMHKELCALMFSLDWIKAKTELVGPAHLIHEFVEYRHILDEKDCAVSENFQEFLSLNGHLLGRQPFPNIVQLGLCEPETSEVYQQAKLQAKQEVDNGMLYLEWINKKNITNLSRLVVRPHTDAVYHACFSEDGQRIASCGADKTLQVFKAETGEKLLEIKAHEDEVLCCAFSTDDRFIATCSVDKKVKIWNSMTGELVHTYDEHSEQVNCCHFTNSSHHLLLATGSSDCFLKLWDLNQKECRNTMFGHTNSVNHCRFSPDDKLLASCSADGTLKLWDATSANERKSINVKQFFLNLEDPQEDMEVIVKCCSWSADGARIMVAAKNKIFLFDIHTSGLLGEIHTGHHSTIQYCDFSPQNHLAVVALSQYCVELWNTDSRSKVADCRGHLSWVHGVMFSPDGSSFLTSSDDQTIRLWETKKVCKNSAVMLKQEVDVVFQENEVMVLAVDHIRRLQLINGRTGQIDYLTEAQVSCCCLSPHLQYIAFGDENGAIEILELVNNRIFQSRFQHKKTVWHIQFTADEKTLISSSDDAEIQVWNWQLDKCIFLRGHQETVKDFRLLKNSRLLSWSFDGTVKVWNIITGNKEKDFVCHQGTVLSCDISHDATKFSSTSADKTAKIWSFDLLLPLHELRGHNGCVRCSAFSVDSTLLATGDDNGEIRIWNVSNGELLHLCAPLSEEGAATHGGWVTDLCFSPDGKMLISAGGYIKWWNVVTGESSQTFYTNGTNLKKIHVSPDFKTYVTVDNLGILYILQTLE
Q: B1 was tested. Which binding did it give?
A: binds
